This is an account of results in PMC6826936.

The target of this test is SETDB1, endogenous in mouse ESCs (mouse (endogenous in HM1 mESCs)) (UniProt O88974). In words: co-IP; 500 ug nuclear extract of HM1 mESCs (micrococcal nuclease, sonication), 5 ug antibody to SETDB1 or MPP8, overnight 4 C, protein A/G beads, washes with 150 mM NaCl, 0.5% Triton X-100; Western blot; IgG as negative control.

No constants are given. Whether binding was seen depends on the method and setting. In cells and extracts the contact can be indirect. Some binding calls cover weakened binding; strength is not graded here.

B1: MPP8 (M-Phase Phosphoprotein 8), endogenous in mouse ESCs (protein, UniProt Q3TYA6 1-858)
chain: MAAAAEEGMSAAALVMSVPDSIGRSPESEGVGAGDEEKDAATKGTVAVGDSEEDGEDVFEVERILDMKCEGGKNLYKVRWKGYTSEDDTWEPEVHLEDCKEVLLEFRKKLAENKAKAVRKDIQRLSLNNDIFEADSDSDQQSDTKEDISPRKKKKKIKCKEETSPEDLRKKRTKMGKLKDKFKTELESTSEIIGFDVKTKKRIWEVKEELKDSKKPKKDEIKETKELKKANKRAEVRDLKIKIREDVKENRKTKKERYIESPLESESPNDSLILEDDSEDFISDNREENQNVRSVRDKTAQETVQEGIFEKHLDDLISIEEDAGTRVRRKKTKPRKFEEPKEIKKLESTNAFLERRAIPKKQRNQDKGISNLELNKLPSPVFAQTLKSSRLSGEEKSLKSPDLAEEEKEKKNEPKGKYQKRYDLDKEEKARKEPKVLKSFKEIRNAFDLFKKTTEEKNDVLENNSKREEISLDSKIMNDNKTKDKCSLKEKRNTRDETDTWAYIAAEGDQEVSDSVCQTDETSDGRQPVLSLGMDLQLEWMKLEDFQKHLDGEDEPFITTNRIPNNLLRDAVKNGDYIAVKVALNSNEEYNLDQEDSTGMTLVMLAAAGGQDDLLRLLITKGAKVNGRQKNGTTALIHAAEKNFLTTVAILLEAGAFVNVQQSNGETALMKACKRGNSDIVRLVIECGADCNILSKHQNSALYFAKQCNNVLVYELLKSHLETLSRVAEETIRDYFESRLALLEPVFPIACHRLCEGPDFSTDFNYMPPQNMPEGSGVLLFIFHANFLGKDVIARLCGPCSVQAVVLNDKFQLPVFLDSHFVYSFSPVAGPNKLFIRLTEAPFAKVKLLIGAYRVQLQ
In the case of B1, the binding result was “binds”.
